According to patent US20240366775A1 (PEPTIDREAM INC., priority 2021, published 2024):

Assay: general procedure: Fmoc solid-phase peptide synthesis; Sieber Amide Resin; DIPCI/Oxyma Pure; HATU/DIEA
Conditions: whole synthesis, UV 225 nm

In the case of 894_3m_GGRGRS_K(Mal), the “final purity (method not given)” value was 95.4%.
